The values that follow come from PubChem BioAssay AID316 (DTP/NCI, 2004).

This assay relates to P1534 leukemia ip, CD2F1 mice, survival T/C. Put plainly: NCI In Vivo Anticancer Drug Screen. Data for tumor model P1534 Leukemia (intraperitoneal) in CD2F1 (CDF1) mice. The conditions noted are these: higher T/C = longer survival. As for the experimental part:
The antitumor activity of compounds was measured in mice bearing transplantable tumors. Survival or tumor size were measured and the results are expressed as the measurement made in the treated group (T) divided by the measurement made in the vehicle treated control group (C). The tumor model used in this assay is P1534 Leukemia (intraperitoneal) in CD2F1 (CDF1) mice

The mark [1] stands for this setting: T/C endpoint: mean survival time, dose: 1.5 mg/kg/injection, schedule: Q01DX010 (ip), vehicle: saline.
The mark [2] stands for this setting: T/C endpoint: mean survival time, dose: 112.0 mg/kg/injection, schedule: Q07DX Z (ip), vehicle: saline.
Setting [3] is: T/C endpoint: mean survival time, dose: 200.0 mg/kg/injection, schedule: Q01DX010 (ip), vehicle: saline.
[4] abbreviates: T/C endpoint: mean survival time, dose: 400.0 mg/kg/injection, schedule: Q01DX010 (ip), vehicle: saline.
The mark [5] stands for this setting: T/C endpoint: mean survival time, dose: 32.0 mg/kg/injection, schedule: Q01DX010 (ip), vehicle: saline.
[6] abbreviates: T/C endpoint: mean survival time, dose: 12.5 mg/kg/injection, schedule: Q01DX010 (ip), vehicle: saline.
The mark [7] stands for this setting: T/C endpoint: mean survival time, dose: 25.0 mg/kg/injection, schedule: Q01DX010 (ip), vehicle: saline.
Setting [8] is: T/C endpoint: mean survival time, dose: 50.0 mg/kg/injection, schedule: Q01DX010 (ip), vehicle: saline.
The mark [9] stands for this setting: T/C endpoint: mean survival time, dose: 100.0 mg/kg/injection, schedule: Q01DX010 (ip), vehicle: saline.
[10] abbreviates: T/C endpoint: mean survival time, dose: 6.0 micrograms/kg/injection, schedule: Q01DX010 (ip), vehicle: other.
[11] abbreviates: T/C endpoint: mean survival time, dose: 25.0 micrograms/kg/injection, schedule: Q01DX010 (ip), vehicle: other.
Setting [12] is: T/C endpoint: mean survival time, dose: 50.0 micrograms/kg/injection, schedule: Q01DX010 (ip), vehicle: other.
[13] abbreviates: T/C endpoint: mean survival time, dose: 100.0 micrograms/kg/injection, schedule: Q01DX010 (ip), vehicle: other.

The list does not hold the whole screen: it is rich in T/C values a quarter to a half above the control, in often repeated tests (any T/C) and in doses without a T/C. Further doses and runs are listed elsewhere. T/C is the treated group as % of the vehicle group. Some entries give survivors of the animals treated and no T/C: the source files T/C as zero there, which appears to mark a toxic dose or a test without result, not a measured value. Some doses without a T/C left all or most animals alive at the check, yet need not have been tolerated: the source hardly ever lists a survival T/C far under the control, and the zero likely stands for such cases as well. Survivors were counted at the toxicity check, usually on the fifth day, unless a day is given; later deaths do not show. Schedules are NCI's codes, taken here to give the interval after Q, in days (D) or hours (H), and the number of doses after X. Some entries hold several experiments; the values are given in rising order. Some schedule codes hold Z or #, which are not explained here. For survival time, this PubChem deposit counts one and a half times the control or more as active, and values a quarter to a half above the control carry no call in these data; other NCI protocols may use other cut-offs. Some T/C values are followed by the survivors on the day toxicity was checked, most often the fifth; where none is given, no animal had died by that day. Numbered stars: 1 amine (or outer) side, 2 acyl side, 3 side chain; on linkers, the order of the positions; unused ones are H or OH. Bridge positions count the residues as written; N and C are the ends. Square brackets hold non-standard residues; d marks the D form. Peptide text beside a SMILES is read from it. I, II: the chains in the order shown. Actinocin(9to1) = Cc1c2oc3c(C)ccc(C(=O)[*:1])c3nc-2c(C(=O)[*:2])c(N)c1=O; aThr = C[C@H](O)[C@H](N)C(=O)O; NMeV = CN[C@H](C(=O)O)C(C)C; Sar = CNCC(=O)O

For `NC(=O)c1ccc(N)nc1`, the T/C was 138 % of control [5 of 6 alive] (T/C endpoint: mean survival time, dose: 0.5 mg/kg/injection, schedule: Q#A X020 (ip), vehicle: saline); 125 % of control [4 of 6 alive] (T/C endpoint: mean survival time, dose: 0.75 mg/kg/injection, schedule: Q01DX010 (ip), vehicle: saline); 142 % of control (T/C endpoint: mean survival time, dose: 1.0 mg/kg/injection, schedule: Q#A X020 (ip), vehicle: saline); 136 and 137 % of control under setting [1]; 140 % of control (T/C endpoint: mean survival time, dose: 3.0 mg/kg/injection, schedule: Q01DX010 (ip), vehicle: saline); 128 % of control (T/C endpoint: mean survival time, dose: 3.0 mg/kg/injection, schedule: Q01DX010 (sc), vehicle: saline). The T/C was 126 % of control (T/C endpoint: mean survival time, dose: 3.0 mg/kg/injection, schedule: Q03DX Z (ip), vehicle: saline); 128 % of control (T/C endpoint: mean survival time, dose: 6.0 mg/kg/injection, schedule: Q01DX006 (iv), vehicle: saline); 130 % of control (T/C endpoint: mean survival time, dose: 6.0 mg/kg/injection, schedule: Q03DX Z (ip), vehicle: saline); 126 % of control (T/C endpoint: mean survival time, dose: 7.0 mg/kg/injection, schedule: Q07DX Z (ip), vehicle: saline); 126 % of control (T/C endpoint: mean survival time, dose: 14.0 mg/kg/injection, schedule: Q01DX001 (ip), vehicle: saline); 125 and 126 % of control (T/C endpoint: mean survival time, dose: 28.0 mg/kg/injection, schedule: Q01DX001 (ip), vehicle: saline). Also, the T/C runs as follows: (T/C endpoint: mean survival time, dose: 28.0 mg/kg/injection, schedule: Q07DX Z (ip), vehicle: saline) 125 and 142 % of control; (T/C endpoint: mean survival time, dose: 56.0 mg/kg/injection, schedule: Q01DX001 (ip), vehicle: saline) 132 % of control [4 of 6 alive]; under setting [2], 146 % of control [5 of 6 alive]. The survivor count is given as 6 of 6 (T/C endpoint: mean survival time, dose: 6.0 mg/kg/injection, schedule: Q01DX010 (oral), vehicle: saline); 7 of 7 (T/C endpoint: mean survival time, dose: 6.0 mg/kg/injection, schedule: Q01DX010 (sc), vehicle: saline); 7 of 7 (T/C endpoint: mean survival time, dose: 12.0 mg/kg/injection, schedule: Q01DX006 (iv), vehicle: saline); 7 of 7 (T/C endpoint: mean survival time, dose: 12.0 mg/kg/injection, schedule: Q01DX010 (im), vehicle: saline); 5 of 6 (T/C endpoint: mean survival time, dose: 12.0 mg/kg/injection, schedule: Q01DX010 (oral), vehicle: saline); 7 of 7 (T/C endpoint: mean survival time, dose: 12.0 mg/kg/injection, schedule: Q01DX010 (sc), vehicle: saline). Also, the survivor count reads like this: (T/C endpoint: mean survival time, dose: 56.0 mg/kg/injection, schedule: Q07DX Z (ip), vehicle: saline) 6 of 6; under setting [2], 7 of 7; (T/C endpoint: mean survival time, dose: 224.0 mg/kg/injection, schedule: Q07DX Z (ip), vehicle: saline) 3 of 7.
`Cc1cc2nc3c(=O)[nH]c(=O)nc-3n(CC(O)C(O)C(O)C(O)CO)c2cc1C` (centres undefined): the survivor count is 6 of 6 under setting [3] and 5 of 6 under setting [4].
With `CCCCOP(=S)(N1CC1)N1CC1`, the survivor count (T/C endpoint: mean survival time, dose: 16.0 mg/kg/injection, schedule: Q01DX010 (ip), vehicle: saline) is 6 of 6 and the survivor count under setting [5] was 5 of 6.
As to `COc1ccc2cc3[n+](cc2c1OC)CCc1cc2c(cc1-3)OCO2`, the survivor count reads like this: under setting [6], 4 of 6; under setting [7], 0 of 6; under setting [8], 0 of 6; under setting [9], 0 of 6.
Turning to `CN(C)c1ccc(C(N)=O)cn1`, the T/C (T/C endpoint: mean survival time, dose: 6.0 mg/kg/injection, schedule: Q01DX010 (ip), vehicle: saline) is 130 % of control. Also, for the setting “T/C endpoint: mean survival time, dose: 12.0 mg/kg/injection, schedule: Q01DX010 (ip), vehicle: saline”, the survivor count is 6 of 6.
For `O=C(NCCCCC(NC(=O)OCc1ccccc1)C(=O)NCCCCCCNCCCCCCNC(=O)C(CCCCNC(=O)OCc1ccccc1)NC(=O)OCc1ccccc1)OCc1ccccc1` (centres undefined), the survivor count under setting [9] was 3 of 6.
Take `O=C(CCCNC(=O)OCc1ccccc1)NCCCCCCCCCCNC(=O)CCCNC(=O)OCc1ccccc1`: the survivor count was 6 of 6 under setting [3] and 6 of 6 under setting [4].
As for `O=C(O)c1[nH]c(=O)[nH]c(=O)c1F`, under “T/C endpoint: mean survival time, dose: 2.5 mg/kg/injection, schedule: Q01DX010 (ip), vehicle: saline”, the T/C is 143 % of control.
Regarding `Cc1c2oc3c(C)ccc(C(=O)N[C@@H]4C(=O)N[C@H](C(C)C)C(=O)N5CCC[C@H]5C(=O)N(C)CC(=O)N(C)[C@@H](C(C)C)C(=O)O[C@H]4C)c3nc-2c(C(=O)N[C@@H]2C(=O)N[C@H](C(C)C)C(=O)N3CCC[C@H]3C(=O)N(C)CC(=O)N(C)[C@@H](C(C)C)C(=O)O[C@H]2C)c(N)c1=O` (I: [aThr][dV]P[Sar][NMeV] / II: [aThr][dV]P[Sar][NMeV]; ester I:1-I:C, II:1-II:C; linker I:N-II:N via Actinocin(9to1)), the T/C is 97, 100, 102, 103, 110 % of control under setting [10]; 87, 95, 99 [5 of 6 alive], 102, 113, 117 % of control (T/C endpoint: mean survival time, dose: 13.0 micrograms/kg/injection, schedule: Q01DX010 (ip), vehicle: other); 100, 106 [5 of 6 alive], 120, 124 % of control under setting [11]; 93, 98, 127, 141 % of control under setting [12]. In addition, the survivor count is on record as 6 of 6 under setting [10], 6 of 6 under setting [11], 6 of 6 under setting [12] and 6 of 6 under setting [13].
Regarding `O=NN(CCCl)C(=O)NCCCl`, the survivor count by setting is: under setting [7], 5 of 6 and 6 of 6; under setting [8], 3 of 6 and 5 of 6.
Take `CCNc1nncs1`: the survivor count by setting is: under setting [5], 6 of 6; (T/C endpoint: mean survival time, dose: 64.0 mg/kg/injection, schedule: Q01DX010 (ip), vehicle: saline) 6 of 6.
As to `Nc1nc(N)c2nc(CNc3ccc(C(=O)NC(CCC(=O)O)C(=O)O)cc3)cnc2n1` (centres undefined), the T/C by setting is: under setting [13], 145 % of control; (T/C endpoint: median survival time, dose: 0.03 mg/kg/injection, schedule: Q01DX009 (ip), vehicle: sodium bicarbonate) 130 % of control.
As to `COC1=C(N)C(=O)c2nc(-c3nc(C(=O)O)c(C)c(-c4ccc(OC)c(OC)c4O)c3N)ccc2C1=O`, the survivor count (T/C endpoint: mean survival time, dose: 0.2 mg/kg/injection, schedule: Q01DX010 (ip), vehicle: saline) is given as 6 of 6.
Consider `CC(=O)c1ccc[nH]1`, for which the survivor count by setting is: (T/C endpoint: mean survival time, dose: 250.0 mg/kg/injection, schedule: Q01DX010 (ip), vehicle: saline) 6 of 6; (T/C endpoint: mean survival time, dose: 500.0 mg/kg/injection, schedule: Q01DX010 (ip), vehicle: saline) 6 of 6.
`C[C@H](N)C(=O)N[C@@H]1[C@H]2C(=C(O)C[C@@H](O)[C@@H]2O)C(=O)O[C@@H]1C`: the T/C by setting is: (T/C endpoint: mean survival time, dose: 150.0 mg/kg/injection, schedule: Q01DX010 (ip), vehicle: saline) 101, 103, 104, 105 % of control; (T/C endpoint: mean survival time, dose: 300.0 mg/kg/injection, schedule: Q01DX010 (ip), vehicle: saline) 102, 105, 114, 125 % of control [5 of 6 alive]; (T/C endpoint: mean survival time, dose: 600.0 mg/kg/injection, schedule: Q01DX010 (ip), vehicle: saline) 109, 110, 115, 117 % of control; (T/C endpoint: mean survival time, dose: 1200.0 mg/kg/injection, schedule: Q01DX010 (ip), vehicle: saline) 91, 97, 111, 119 % of control. In addition, the survivor count (T/C endpoint: mean survival time, dose: 2400.0 mg/kg/injection, schedule: Q01DX010 (ip), vehicle: saline) was 1 of 6, 2 of 6, 3 of 6.
On to `COc1ccc2c3c(c4cc(OC)c(OC)cc4c2c1)C[C@H]1CCCCN1C3`, for which the survivor count reads like this: (T/C endpoint: mean survival time, dose: 1.0 mg/kg/injection, schedule: Q01DX010 (ip), vehicle: saline) 6 of 6; under setting [1], 3 of 6.
Take `COc1cc2c(cc1Oc1c(Oc3c(O)c(OC)cc4c3C(CC(C)C)N(C)CC4)c(OC)cc3c1C(CC(C)C)N(C)CC3)C(CC(C)C)N(C)CC2` (centres undefined): the survivor count under setting [3] is 5 of 6.
On to `CS(=O)(=O)OCCC(=O)N1CCN(C(=O)CCOS(C)(=O)=O)CC1`, for which the T/C under setting [6] is 143 % of control.
